# Assay results reported in patent publication US20120027773A1.
# The chains behind the UniProt entries cited, without tags or fusion partners. Residues count along the entry.
# UniProt Q04912, residues 25-571: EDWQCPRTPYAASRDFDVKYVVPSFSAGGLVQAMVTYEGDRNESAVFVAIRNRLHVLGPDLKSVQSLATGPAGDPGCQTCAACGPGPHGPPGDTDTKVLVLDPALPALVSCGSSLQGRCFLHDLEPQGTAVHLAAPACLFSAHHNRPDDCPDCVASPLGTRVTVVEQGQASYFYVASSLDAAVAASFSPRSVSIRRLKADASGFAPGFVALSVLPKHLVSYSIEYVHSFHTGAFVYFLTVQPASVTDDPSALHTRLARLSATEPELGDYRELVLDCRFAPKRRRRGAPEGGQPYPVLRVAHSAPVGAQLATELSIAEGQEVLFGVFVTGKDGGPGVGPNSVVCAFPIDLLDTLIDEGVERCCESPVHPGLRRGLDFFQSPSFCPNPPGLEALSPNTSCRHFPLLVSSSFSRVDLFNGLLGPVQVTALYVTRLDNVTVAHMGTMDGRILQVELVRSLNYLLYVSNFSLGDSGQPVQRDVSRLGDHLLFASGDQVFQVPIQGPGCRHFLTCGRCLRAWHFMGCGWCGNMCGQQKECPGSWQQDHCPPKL
# Changes are numbered by the printed parent chain. These are yes or no findings as the source states them, for the method shown. Some entries that bind do so weakly or less than the wild type.
# B1: 07F01 (antibody, mouse IgG1, kappa, V domains shown)
# VH: EVKLLESGGGLVQPGGSLKLSCAASGFDFSRHWMSWVRLAPGKGLEWIAEINPDSRTINYTPSLKEKFIISRDNAKNSLFLQMNRVRSEDTALYYCARRVRIHYYGAMDCWGQGTSVTVSS
# VL: DIVLTQSQKIVSTSVGARVSVTCKASQNVGSSLVWYQQKPGQSPKTLIYSASFRYSGVPDRFTGSGSGTDFTLTISNVQSEDLADYFCQQYNNYPLTFGAGTKLELKR
# B2: 18H09 (antibody, mouse IgG1, V domains shown)
# VH: EVQLQESGPSLVKPSQTLSLTCYVTGDSITSDYWNWIRKFPGNKLEYMGYISYSGSTYYNPSLKSRISITRDTSKNQFYLRLNSVTTEDTATYYCARTHILTIAYWGQGTLVTVSA
# VL: QAVVTQESALTTSPGETVTLTCRSSAGAVTTSNFANWVQEKPDHLFTGLIGDTNIRAPGVPARFSGSLIGDKAALTITGAQTEDEAIYFCALWYSNHYWVFGGGTKLTVLG
# B3: Sh07F01-2 (antibody, human IgG1, kappa, V domains shown)
# VH: B1 VH with C110S
# VL: B1 VL
# B4: Sh07F01-62 (antibody, human IgG1, kappa, V domains shown)
# VH: EVQLVESGGGLVQPGGSLRLSCAASGFTFSRHWMSWVRQAPGKGLEWVSEINPDSRTINYAPSVKGRFTISRDNAKNSLYLQMNSLRAEDTAVYYCARRVRIHYYGAMDSWGQGTTVTVSS
# VL: DIQLTQSQSFVSTSVGDRVTVTCRASQNVGSSLVWYQQKPGKSPKTLIYSASFLYSGVPSRFSGSGSGTEFTLTISSVQPEDFADYFCQQYNNYPLTFGGGTKVEIKR
# B5: Sh07F01-69 (antibody, human IgG1, kappa, V domains shown)
# VH: B4 VH with T28D, A61T, V64L, G66E
# VL: B4 VL with Q8P, V11L, T13A, V21I, S43A, V78L, D85T, F87Y
# B6: Sh07F01-83 (antibody, human IgG1, kappa, V domains shown)
# VH: B4 VH
# VL: B4 VL with Q8P, V11L, T13A, V21I, S43A, V78L, D85T, F87Y
# B7: Sh29B06-9 (antibody, human IgG1, kappa, V domains shown)
# VH: EVQLQESGPSLVKPSQTLSLTCSVTGDSITSGYWNWIRKFPGNKLEYMGYISYSGKTYYNPSLKSRISITRDTSKNHYYLQLISVTAEDTATYYCARSKYDYAMDYWGQGTSVTVSS
# VL: DIVMTQSPLSLPVTPGEPASISCRASEIVDNFGISFMNWYLQKPGQSPQLLIYAASNQGSGVPDRFSGSGSGTDFTLKISRVEAEDVGVYYCQQSKEVPPTFGGGTKVEIKR
# B8: Sh29B06-23 (antibody, human IgG1, kappa, V domains shown)
# VH: QVQLQESGPGLVKPSETLSLTCTVSGDSITSGYWNWIRKPPGKKLEYMGYISYSGKTYYNPSLKSRITISRDTSKNQYSLKLSSVTAADTAVYYCARSKYDYAMDYWGQGTLVTVSS
# VL: B7 VL
# B9: Sh29B06-78 (antibody, human IgG1, kappa, V domains shown)
# VH: B8 VH with D27G, T30S, M48I, I67V, Y78F
# VL: B7 VL
# B10: 17F06 (antibody, mouse IgG2a, V domains shown)
# VH: EVKLVESGGGLVKPGASLKLSCAASGFIFSSYGMSWVRQTSDKRLEWVASISSGGGTTYYLDTVKGRFTISRENAKDTLYLQMSGLKSEDTALYYCTRGQWLLKFAYWGQGTLVTVSA
# VL: QLVLTQSSSASFSLGASAKLTCTLSSQHTTYTIEWYQQLPLKPPKYVMELKKDGSHSTGVGIPDRFSGSSSGADRYLTISNIQPEDEAIYICGVGETIEDQFVYVFGGGTKVTVLG
# Key:
# [1] = target: recombinant human RON SEMA and PSI domains (human) (UniProt Q04912); test: SPR (summary of Table 6)
# [2] = target: recombinant human RON SEMA and PSI domains (human) (UniProt Q04912); test: ECL competition assay: antibody titrated on plate-coated hRON SEMA+PSI; blocked ligand MSP, detected with biotinylated anti-MSP antibody
# [3] = target: recombinant human RON SEMA and PSI domains (human) (UniProt Q04912); test: SPR 37 C (summary of Table 20)
# [4] = target: recombinant human RON SEMA and PSI domains (human) (UniProt Q04912); test: SPR (summary of Table 23)
Binder,binding [1],binding [3],other results
B1,binds,–,binding [2]: binds
B2,binds,–,binding [2]: binds
B3,–,binds,–
B4,–,binds,binding [4]: binds
B5,–,binds,–
B6,–,binds,–
B7,–,binds,–
B8,–,binds,–
B9,–,–,binding [4]: binds
B10,binds,–,–
